Binding data for 1 molecule are collected here from US20240050475A1.

No constants are given. Whether binding was seen depends on the method and setting. Some results given as binding are weak or reduced against the parent protein; the word gives no strength.

The target of this assay is T1, recombinant PRDX4 (Homo sapiens (Human)) (UniProt Q13162).
T1 sequence: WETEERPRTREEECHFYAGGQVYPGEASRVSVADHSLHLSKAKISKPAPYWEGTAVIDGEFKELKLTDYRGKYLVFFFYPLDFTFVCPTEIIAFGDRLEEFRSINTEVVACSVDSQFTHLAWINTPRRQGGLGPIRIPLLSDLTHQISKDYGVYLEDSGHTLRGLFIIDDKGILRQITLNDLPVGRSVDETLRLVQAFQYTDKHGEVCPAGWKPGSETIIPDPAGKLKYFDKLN
Nature of the assay: immunoprecipitation of 10 ng recombinant PRDX4 with 11F2 beads, immunoblot with a commercial PRDX4 antibody. In general terms: A western blot detects proteins with antibodies after separation by electrophoresis.

B1: antibody 11F2 (antibody, V domains shown)
VH: QVQLQQSGAELVKPGTSVKLSCKASGYTFSTHHMHWIKETTGQGLEWIGIINPGNGGTKYNVKFKGKATLTVDSSSSTAFMQLGSLTPEDSAVYYCARGNPASFDYWGQGVMVTVSS
VL: DIQMTQSPSFLSASVGDRVTINCKASQNIYKYLNWYQQKLGEAPKRLIYNTNNLETDIPSRFSGSGSGTDYTFTISSLQPEDFATYFCLQHSNFPFTFGSGTKLEIKR
For the molecule B1, the binding entry is recorded as “binds”.
